Measurements as given in US20040053278A1.
No constants are given. Whether binding was seen depends on the method and setting. For part of these data: In cells and extracts the contact can be indirect. Some entries that bind do so weakly or less than the wild type. For part of these data: Where a sequence is shown, tags or fusion partners need not be part of it.

Amino acid sequences for entries named in this document (tags omitted). A change or cut given only in a name is not applied to a line headed by its entry.
UniProt Q13485: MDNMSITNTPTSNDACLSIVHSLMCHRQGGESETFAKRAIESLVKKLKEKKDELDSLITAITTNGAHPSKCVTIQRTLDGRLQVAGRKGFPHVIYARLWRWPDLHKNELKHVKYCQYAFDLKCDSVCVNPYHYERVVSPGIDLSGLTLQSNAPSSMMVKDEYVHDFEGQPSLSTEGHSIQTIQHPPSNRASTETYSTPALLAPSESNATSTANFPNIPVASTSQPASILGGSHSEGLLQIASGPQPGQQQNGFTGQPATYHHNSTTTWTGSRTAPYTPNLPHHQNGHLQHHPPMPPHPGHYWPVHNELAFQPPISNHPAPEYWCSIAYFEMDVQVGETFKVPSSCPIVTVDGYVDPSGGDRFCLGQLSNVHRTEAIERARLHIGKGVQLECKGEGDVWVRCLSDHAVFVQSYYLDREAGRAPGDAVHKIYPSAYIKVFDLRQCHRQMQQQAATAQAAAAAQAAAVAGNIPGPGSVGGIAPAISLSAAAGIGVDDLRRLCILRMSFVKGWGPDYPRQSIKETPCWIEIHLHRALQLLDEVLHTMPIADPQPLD
UniProt P84022: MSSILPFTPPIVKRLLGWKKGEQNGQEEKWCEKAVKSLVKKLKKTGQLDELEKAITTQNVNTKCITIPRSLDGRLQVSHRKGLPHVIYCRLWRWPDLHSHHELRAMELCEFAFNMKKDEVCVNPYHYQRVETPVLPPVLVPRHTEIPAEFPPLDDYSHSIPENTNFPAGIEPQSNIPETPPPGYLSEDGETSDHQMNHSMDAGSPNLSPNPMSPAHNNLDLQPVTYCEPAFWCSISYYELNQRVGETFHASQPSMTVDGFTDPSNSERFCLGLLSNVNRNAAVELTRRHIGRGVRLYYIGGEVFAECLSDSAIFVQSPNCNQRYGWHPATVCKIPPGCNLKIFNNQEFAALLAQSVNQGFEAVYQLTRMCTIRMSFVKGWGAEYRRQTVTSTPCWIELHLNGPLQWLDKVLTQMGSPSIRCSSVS
UniProt Q62432: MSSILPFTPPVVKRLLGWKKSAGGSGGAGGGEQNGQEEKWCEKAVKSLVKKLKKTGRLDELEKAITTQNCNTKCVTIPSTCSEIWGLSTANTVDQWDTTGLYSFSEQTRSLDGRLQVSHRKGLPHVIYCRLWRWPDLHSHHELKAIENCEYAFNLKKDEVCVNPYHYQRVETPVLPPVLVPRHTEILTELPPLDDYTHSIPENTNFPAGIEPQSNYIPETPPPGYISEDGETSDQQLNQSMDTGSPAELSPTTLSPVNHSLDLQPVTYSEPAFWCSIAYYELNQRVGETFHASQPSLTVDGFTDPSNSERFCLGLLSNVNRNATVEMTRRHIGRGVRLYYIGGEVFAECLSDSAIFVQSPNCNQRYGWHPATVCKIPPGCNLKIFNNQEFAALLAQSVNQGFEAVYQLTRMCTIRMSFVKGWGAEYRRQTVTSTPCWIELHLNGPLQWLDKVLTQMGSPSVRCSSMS

How the values were obtained:
[1] = molecular target: T1, kinase-defective (KR) HA-tagged TβR-I (UniProt P36897); assay: affinity cross-linking with 125I-TGF-β1, anti-FLAG immunoprecipitation from COS-7 lysates, autoradiography
T1 sequence (looked up): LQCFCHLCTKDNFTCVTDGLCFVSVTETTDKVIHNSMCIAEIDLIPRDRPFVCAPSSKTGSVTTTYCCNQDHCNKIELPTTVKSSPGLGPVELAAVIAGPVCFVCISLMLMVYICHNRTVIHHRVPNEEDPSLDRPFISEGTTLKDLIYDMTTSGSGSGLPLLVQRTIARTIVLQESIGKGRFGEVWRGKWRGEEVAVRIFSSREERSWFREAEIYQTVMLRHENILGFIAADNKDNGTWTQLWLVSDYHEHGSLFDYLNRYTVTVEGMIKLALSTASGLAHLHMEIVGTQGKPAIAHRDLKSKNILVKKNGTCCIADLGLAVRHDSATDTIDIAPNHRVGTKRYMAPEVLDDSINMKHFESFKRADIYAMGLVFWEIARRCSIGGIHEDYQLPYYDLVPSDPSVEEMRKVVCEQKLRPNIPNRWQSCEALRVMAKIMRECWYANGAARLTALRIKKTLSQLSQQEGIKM

[2] = molecular target: Smad4 (epitope-tagged, heteromerization experiment of Example 4) (Homo sapiens (Human)) (UniProt Q13485); assay: co-immunoprecipitation and Western blot from COS-7 cells
[3] = molecular target: Smad3 (epitope-tagged, heteromerization experiment of Example 4) (Homo sapiens (Human)) (UniProt P84022); assay: co-immunoprecipitation and Western blot from COS-7 cells with constitutively active TβR-I

**Q.** How did the binding [1] turn out when “FLAG-tagged Smad2 (from UniProt Q62432 2-467)” was run?
**A.** The binding was “binds”.

**Q.** Which binding [2] does the source give for “Smad2 (epitope-tagged, heteromerization experiment of Example 4) (from UniProt Q62432 2-467)” here?
**A.** The binding was “binds”.

**Q.** How did the binding [3] turn out when “Smad4 (epitope-tagged, heteromerization experiment of Example 4) (from UniProt Q13485 1-552)” was run?
**A.** Its binding is “binds”.
